Reference: the supplement of paper PMC10849652
The list shows a part of the results.

Sequences of proteins named here, by UniProt entry; tags and fusion partners are left off. A change or cut given only in a name is not applied to a line headed by its entry.
UniProt Q96HV5: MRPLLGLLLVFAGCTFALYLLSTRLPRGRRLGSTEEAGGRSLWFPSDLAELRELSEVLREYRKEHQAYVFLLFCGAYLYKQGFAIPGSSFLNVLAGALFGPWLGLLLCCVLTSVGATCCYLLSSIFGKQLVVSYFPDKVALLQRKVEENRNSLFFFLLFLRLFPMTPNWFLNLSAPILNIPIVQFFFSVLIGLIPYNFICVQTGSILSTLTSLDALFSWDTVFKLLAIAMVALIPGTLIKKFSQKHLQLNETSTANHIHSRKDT
UniProt Q9Y320, whole entry, looked up: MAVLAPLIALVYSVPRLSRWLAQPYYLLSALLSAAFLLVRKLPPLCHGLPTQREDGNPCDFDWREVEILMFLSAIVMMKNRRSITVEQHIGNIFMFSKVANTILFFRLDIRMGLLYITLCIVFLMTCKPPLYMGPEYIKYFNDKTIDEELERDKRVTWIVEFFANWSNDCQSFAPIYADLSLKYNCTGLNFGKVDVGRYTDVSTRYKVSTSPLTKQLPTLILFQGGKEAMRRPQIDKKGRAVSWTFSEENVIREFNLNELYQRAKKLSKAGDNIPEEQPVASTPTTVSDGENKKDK
UniProt Q13445: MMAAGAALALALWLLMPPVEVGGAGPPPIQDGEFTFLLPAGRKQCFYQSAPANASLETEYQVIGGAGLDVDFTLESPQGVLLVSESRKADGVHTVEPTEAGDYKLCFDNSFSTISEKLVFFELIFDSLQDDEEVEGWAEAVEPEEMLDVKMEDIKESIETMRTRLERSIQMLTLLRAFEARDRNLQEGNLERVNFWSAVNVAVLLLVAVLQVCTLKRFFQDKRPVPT
UniProt Q9Y4G6: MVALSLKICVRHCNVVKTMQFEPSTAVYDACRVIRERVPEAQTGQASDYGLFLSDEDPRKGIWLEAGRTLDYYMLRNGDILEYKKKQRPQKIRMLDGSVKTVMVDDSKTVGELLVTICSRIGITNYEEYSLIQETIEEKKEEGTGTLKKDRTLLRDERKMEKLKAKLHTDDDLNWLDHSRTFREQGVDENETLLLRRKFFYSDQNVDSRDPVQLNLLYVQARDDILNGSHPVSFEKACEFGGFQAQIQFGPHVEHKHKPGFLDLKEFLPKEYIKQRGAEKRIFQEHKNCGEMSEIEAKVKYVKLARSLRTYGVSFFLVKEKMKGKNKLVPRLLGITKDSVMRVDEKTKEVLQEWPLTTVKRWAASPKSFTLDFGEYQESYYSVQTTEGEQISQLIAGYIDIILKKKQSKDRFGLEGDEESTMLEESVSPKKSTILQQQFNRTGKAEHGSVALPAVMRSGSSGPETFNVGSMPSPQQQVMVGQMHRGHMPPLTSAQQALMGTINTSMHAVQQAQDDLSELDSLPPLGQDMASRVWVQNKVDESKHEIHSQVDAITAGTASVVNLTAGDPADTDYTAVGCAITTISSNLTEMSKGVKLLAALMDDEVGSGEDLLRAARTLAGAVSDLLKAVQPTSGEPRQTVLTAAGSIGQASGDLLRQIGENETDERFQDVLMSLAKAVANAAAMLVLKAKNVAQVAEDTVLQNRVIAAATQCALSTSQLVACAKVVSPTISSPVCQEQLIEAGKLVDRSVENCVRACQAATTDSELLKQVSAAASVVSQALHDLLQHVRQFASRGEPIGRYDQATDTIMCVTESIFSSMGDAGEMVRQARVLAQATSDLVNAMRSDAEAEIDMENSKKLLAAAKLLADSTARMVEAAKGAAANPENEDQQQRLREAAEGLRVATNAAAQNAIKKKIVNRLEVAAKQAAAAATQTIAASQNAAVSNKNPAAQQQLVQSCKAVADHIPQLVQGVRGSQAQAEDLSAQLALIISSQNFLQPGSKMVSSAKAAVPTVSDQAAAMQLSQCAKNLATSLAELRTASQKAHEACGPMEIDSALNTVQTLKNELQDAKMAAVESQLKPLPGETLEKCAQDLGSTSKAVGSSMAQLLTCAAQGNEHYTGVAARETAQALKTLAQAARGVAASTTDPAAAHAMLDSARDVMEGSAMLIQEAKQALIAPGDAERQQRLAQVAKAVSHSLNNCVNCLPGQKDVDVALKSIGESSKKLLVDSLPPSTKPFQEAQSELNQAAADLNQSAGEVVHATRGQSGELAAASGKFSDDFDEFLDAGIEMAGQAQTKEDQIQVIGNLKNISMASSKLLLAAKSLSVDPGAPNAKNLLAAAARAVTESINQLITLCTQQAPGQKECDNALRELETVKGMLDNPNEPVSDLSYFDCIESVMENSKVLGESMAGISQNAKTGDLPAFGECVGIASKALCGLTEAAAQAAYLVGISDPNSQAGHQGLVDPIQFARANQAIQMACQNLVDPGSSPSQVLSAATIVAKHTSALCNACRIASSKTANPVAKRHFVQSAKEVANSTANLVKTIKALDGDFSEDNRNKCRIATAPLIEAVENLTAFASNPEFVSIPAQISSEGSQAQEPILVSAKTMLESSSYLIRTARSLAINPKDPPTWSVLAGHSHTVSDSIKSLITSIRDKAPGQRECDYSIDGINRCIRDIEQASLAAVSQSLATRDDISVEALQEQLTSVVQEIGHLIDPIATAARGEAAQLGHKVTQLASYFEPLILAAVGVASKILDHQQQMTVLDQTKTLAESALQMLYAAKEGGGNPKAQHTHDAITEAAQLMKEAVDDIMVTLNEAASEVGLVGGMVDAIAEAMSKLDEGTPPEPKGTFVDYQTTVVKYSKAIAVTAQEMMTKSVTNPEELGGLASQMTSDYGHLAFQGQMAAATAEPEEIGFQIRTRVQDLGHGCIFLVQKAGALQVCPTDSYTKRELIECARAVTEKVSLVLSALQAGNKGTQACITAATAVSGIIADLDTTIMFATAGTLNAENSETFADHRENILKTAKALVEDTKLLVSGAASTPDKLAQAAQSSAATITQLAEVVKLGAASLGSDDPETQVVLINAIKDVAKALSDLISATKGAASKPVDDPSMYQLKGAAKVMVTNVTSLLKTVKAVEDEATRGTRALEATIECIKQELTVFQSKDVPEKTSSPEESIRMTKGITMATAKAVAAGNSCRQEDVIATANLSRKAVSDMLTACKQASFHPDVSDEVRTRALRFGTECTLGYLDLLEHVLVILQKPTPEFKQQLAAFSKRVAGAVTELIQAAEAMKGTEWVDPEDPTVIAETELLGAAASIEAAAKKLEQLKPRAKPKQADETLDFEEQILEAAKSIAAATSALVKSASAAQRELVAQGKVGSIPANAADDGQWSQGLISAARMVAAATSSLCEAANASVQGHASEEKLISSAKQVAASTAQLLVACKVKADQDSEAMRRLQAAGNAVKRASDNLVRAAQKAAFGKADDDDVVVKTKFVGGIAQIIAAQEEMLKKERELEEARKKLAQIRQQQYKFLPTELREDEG
UniProt Q9NYL9: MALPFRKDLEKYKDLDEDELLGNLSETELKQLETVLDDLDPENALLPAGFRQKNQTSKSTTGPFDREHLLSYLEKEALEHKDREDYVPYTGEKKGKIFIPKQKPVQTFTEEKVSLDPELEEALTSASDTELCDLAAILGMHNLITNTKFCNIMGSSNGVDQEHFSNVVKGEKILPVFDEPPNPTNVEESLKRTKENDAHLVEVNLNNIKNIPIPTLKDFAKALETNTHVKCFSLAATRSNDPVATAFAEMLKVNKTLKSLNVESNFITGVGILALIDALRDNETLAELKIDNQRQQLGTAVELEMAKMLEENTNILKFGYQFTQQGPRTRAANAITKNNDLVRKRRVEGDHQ
UniProt Q9Y2S6, whole entry, looked up: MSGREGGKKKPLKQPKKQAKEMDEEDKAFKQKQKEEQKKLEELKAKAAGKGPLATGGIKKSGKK
UniProt Q53S58: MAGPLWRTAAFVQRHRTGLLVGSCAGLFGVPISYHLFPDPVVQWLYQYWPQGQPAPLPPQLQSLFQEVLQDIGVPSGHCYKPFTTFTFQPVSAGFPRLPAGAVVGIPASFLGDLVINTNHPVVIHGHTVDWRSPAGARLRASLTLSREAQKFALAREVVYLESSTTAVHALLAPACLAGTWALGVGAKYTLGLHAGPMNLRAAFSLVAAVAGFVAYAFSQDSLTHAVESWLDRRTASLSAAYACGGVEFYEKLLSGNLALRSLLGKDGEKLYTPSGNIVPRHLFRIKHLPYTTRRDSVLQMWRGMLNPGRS
UniProt Q9H0R3: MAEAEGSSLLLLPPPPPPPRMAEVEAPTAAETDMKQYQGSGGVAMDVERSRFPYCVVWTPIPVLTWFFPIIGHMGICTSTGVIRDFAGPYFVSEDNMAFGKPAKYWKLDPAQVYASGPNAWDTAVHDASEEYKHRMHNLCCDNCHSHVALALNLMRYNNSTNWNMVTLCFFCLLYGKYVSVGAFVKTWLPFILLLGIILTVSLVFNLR
UniProt Q6PI78: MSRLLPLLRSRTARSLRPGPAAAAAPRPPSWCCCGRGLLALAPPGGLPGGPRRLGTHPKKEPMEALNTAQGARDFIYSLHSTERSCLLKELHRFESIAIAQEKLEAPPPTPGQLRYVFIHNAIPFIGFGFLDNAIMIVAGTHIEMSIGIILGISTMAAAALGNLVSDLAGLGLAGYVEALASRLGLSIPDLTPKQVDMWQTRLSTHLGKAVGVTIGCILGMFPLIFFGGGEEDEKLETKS
UniProt Q71RG4: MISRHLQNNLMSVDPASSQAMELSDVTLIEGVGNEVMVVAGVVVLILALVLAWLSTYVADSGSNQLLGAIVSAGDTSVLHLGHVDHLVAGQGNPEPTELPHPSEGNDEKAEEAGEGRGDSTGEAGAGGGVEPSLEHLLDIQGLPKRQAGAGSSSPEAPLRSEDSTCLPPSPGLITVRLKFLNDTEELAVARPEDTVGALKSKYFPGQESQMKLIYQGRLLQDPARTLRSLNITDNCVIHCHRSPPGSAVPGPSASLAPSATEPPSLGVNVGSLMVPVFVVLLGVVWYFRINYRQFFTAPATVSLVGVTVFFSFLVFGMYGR
UniProt Q9P0S9: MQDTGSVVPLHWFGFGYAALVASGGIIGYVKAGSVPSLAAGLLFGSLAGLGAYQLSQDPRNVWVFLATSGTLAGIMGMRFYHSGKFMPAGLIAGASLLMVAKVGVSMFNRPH
UniProt Q8TDI8: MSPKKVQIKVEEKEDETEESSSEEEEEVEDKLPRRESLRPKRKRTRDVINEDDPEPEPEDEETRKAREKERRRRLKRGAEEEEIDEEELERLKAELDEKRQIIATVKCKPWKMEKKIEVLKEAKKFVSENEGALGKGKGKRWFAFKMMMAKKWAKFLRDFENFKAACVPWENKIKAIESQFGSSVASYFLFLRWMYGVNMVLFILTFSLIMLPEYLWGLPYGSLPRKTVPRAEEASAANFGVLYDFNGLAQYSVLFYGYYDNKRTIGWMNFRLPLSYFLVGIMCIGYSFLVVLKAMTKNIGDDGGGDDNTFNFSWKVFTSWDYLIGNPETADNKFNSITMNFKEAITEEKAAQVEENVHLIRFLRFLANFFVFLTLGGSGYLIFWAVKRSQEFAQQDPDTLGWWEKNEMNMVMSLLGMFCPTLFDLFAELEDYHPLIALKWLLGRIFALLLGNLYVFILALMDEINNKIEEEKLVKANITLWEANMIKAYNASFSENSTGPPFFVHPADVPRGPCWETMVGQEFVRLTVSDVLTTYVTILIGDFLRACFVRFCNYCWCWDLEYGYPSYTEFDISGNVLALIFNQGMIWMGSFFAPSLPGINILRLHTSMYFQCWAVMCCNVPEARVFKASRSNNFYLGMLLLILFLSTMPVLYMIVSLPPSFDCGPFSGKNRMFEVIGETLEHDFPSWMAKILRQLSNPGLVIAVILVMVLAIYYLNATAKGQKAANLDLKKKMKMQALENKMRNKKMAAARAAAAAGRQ
UniProt Q8TBQ9: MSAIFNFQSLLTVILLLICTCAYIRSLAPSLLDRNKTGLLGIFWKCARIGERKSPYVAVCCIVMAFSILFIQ
UniProt Q96I45: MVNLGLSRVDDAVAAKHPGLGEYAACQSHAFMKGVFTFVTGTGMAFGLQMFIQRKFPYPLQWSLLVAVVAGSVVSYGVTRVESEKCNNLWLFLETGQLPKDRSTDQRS
UniProt Q8N131: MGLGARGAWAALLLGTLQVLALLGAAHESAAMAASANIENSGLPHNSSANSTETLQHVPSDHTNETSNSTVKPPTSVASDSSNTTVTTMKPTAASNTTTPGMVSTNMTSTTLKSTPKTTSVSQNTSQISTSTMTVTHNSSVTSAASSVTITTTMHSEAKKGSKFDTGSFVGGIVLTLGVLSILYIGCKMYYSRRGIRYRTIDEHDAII
UniProt A5PLL7: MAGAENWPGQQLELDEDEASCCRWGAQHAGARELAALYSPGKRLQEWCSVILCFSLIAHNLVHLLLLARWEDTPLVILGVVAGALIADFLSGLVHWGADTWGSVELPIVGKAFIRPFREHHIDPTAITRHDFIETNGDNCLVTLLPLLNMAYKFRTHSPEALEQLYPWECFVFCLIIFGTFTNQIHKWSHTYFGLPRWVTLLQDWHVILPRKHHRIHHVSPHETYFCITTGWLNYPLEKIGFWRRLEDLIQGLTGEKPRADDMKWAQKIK
UniProt Q9Y3A6: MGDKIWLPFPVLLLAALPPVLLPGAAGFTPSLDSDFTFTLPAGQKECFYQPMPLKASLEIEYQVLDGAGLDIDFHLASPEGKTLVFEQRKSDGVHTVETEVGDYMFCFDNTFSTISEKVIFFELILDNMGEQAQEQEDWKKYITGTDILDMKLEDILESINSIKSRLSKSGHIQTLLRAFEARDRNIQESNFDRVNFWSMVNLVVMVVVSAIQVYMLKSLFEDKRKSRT

Assays:
Assay in all cases: log2 fold change, soluble protein after heating vs DMSO (PISA); higher = thermal stabilisation; K562 cells, 10 uM, 30 min; active = over 0.2 and 3.5 SD of the protein, either way, in both replicates (recomputed)
erlotinib = compound: C#Cc1cccc(Nc2ncnc3cc(OCCOC)c(OCCOC)cc23)c1 [erlotinib]
Summary of the method: (§1)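 Thermal stability values are relative to control samples and come from duplicates. They are expressed as log2 fold changes. For measurement, K562 cells (2×10^6 cells/mL) received 10 μM compound for 30 min, and aliquots were heated for 3 min over 48°C-58°C, pooled, and extracted at 4°C in PBS with 0.5% NP-40. Soluble protein, the supernatant after 21,000xg for 90 min, was quantified by TMTpro 16plex LC-MS/MS with equalised channel sums.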

[1] = compound: C/C(=N\NC(=O)C1=CC(=CC=C1)S(=O)(=O)N2CCOCC2)/C3=C(C=CC(=C3)Cl)O
Summary of the method: as §1

[2] = compound: C1=CC(=C(C=C1Cl)C2=NC3=NC=CN=C3C(=N2)NC4=CC=NC=C4)F
Summary of the method: as §1

[3] = compound: C1=CC(=CC=C1C2=NC3=C(N2)C=C(C=C3)C(=O)N)OC4=CC=C(C=C4)Cl
Summary of the method: as §1

[4] = compound: C1=CC2=C(C=CC(=C2)/C=C\3/C(=O)NC(=NCC4=CC=CS4)S3)N=C1
Summary of the method: as §1

[5] = compound: C1=CC2=NC=CN=C2C=C1/C=C/3\C(=O)NC(=O)S3
Summary of the method: as §1

[6] = compound: C1=CC=C(C=C1)C2=NC(=C(N2)C3=CC=NC=C3)C4=CC(=C(C=C4)Cl)O
Summary of the method: as §1

[7] = compound: C1=CC=C2C(=C1)C3=NNC4=CC=CC(=C43)C2=O
Summary of the method: as §1

[8] = compound: C1CCN(C1)C(=O)NC2=CC=CC(=C2)NC3=NC=C(C(=N3)NCCC4=CN=CN4)Br
Summary of the method: as §1

[9] = compound: C1CN(CCC1(CC2=CC=C(C=C2)Cl)N)C3=NC=NC4=C3C=CN4
Summary of the method: as §1

Measured: log2 fold change

TMEM41A (UniProt Q96HV5)
inactive: erlotinib 0.013 | [1] 0.046 | [2] -0.02 | [3] -0.014 | [4] 0.024 | [5] 0.037 | [6] -0.04 | [7] 0.013 | [8] -0.069 | [9] 0.033

TMX2 (UniProt Q9Y320)
inactive: erlotinib 0.047 | [1] 0.001 | [2] 0.03 | [3] -0.003 | [4] 0.048 | [5] 0.016 | [6] 0.041 | [7] -0.012 | [8] -0.032 | [9] -0.028

TMPO (UniProt P42166)
inactive: erlotinib 0.112 | [1] -0.135 | [2] 0.072 | [3] 0 | [4] 0.17 | [5] 0.103 | [6] 0.06 | [7] -0.104 | [8] 0.068 | [9] 0.049

TMED1 (UniProt Q13445)
inactive: erlotinib -0.007 | [1] 0.083 | [2] 0.095 | [3] -0.008 | [4] -0.028 | [5] 0.048 | [6] -0.109 | [7] 0.005 | [8] -0.019 | [9] 0.016

TMEM147 (UniProt Q9BVK8)
inactive: erlotinib 0.069 | [1] -0.053 | [2] -0.031 | [3] -0.115 | [4] 0.044 | [5] 0.115 | [6] -0.07 | [7] 0.008 | [8] -0.039 | [9] 0.157

TLN2 (UniProt Q9Y4G6)
inactive: erlotinib 0.084 | [1] 0.002 | [2] 0.099 | [3] -0.003 | [4] -0.071 | [5] 0.048 | [6] -0.032 | [7] 0.013 | [8] -0.016 | [9] -0.016

TMPO isoform 2 (UniProt P42167)
inactive: erlotinib -0.009 | [1] -0.065 | [2] 0.023 | [3] 0.017 | [4] 0.078 | [5] 0.04 | [6] -0.11 | [7] -0.111 | [8] 0.061 | [9] 0.043

TMA16 (UniProt Q96EY4)
inactive: erlotinib -0.06 | [1] -0.118 | [2] -0.43 | [3] 0.047 | [4] -0.039 | [5] -0.084 | [6] -0.024 | [7] 0.001 | [8] 0.043 | [9] -0.069

TMED4 (UniProt Q7Z7H5)
inactive: erlotinib 0.047 | [1] 0.078 | [2] 0.061 | [3] -0.025 | [4] 0.022 | [5] 0.054 | [6] -0.065 | [7] -0.076 | [8] -0.031 | [9] -0.002

TMEM214 (UniProt Q6NUQ4)
inactive: erlotinib -0.068 | [1] 0.016 | [2] -0.019 | [3] 0.001 | [4] 0.015 | [5] 0.017 | [6] -0.044 | [7] -0.025 | [8] 0.009 | [9] -0.088

TMOD3 (UniProt Q9NYL9)
inactive: erlotinib 0.02 | [1] 0.064 | [2] 0.024 | [3] -0.007 | [4] -0.047 | [5] 0.033 | [6] 0.009 | [7] 0.02 | [8] -0.02 | [9] -0.012

TMA7 (UniProt Q9Y2S6)
inactive: erlotinib 0.02 | [1] -0.006 | [2] -0.044 | [3] 0.033 | [4] 0.024 | [5] 0 | [6] -0.072 | [7] -0.035 | [8] 0.068 | [9] 0.024

TMEM177 (UniProt Q53S58)
inactive: erlotinib 0.058 | [1] 0.044 | [2] 0.03 | [3] -0.025 | [4] 0.062 | [5] -0.015 | [6] -0.034 | [7] 0.01 | [8] 0.028 | [9] 0.132

TMX4 (UniProt Q9H1E5)
inactive: erlotinib -0.008 | [1] -0.045 | [2] -0.049 | [3] -0.049 | [4] 0.016 | [5] 0.064 | [6] 0.092 | [7] -0.022 | [8] 0.05 | [9] 0.035

TMEM222 (UniProt Q9H0R3)
inactive: erlotinib -0.009 | [1] 0.092 | [2] -0.053 | [3] 0.043 | [4] 0.037 | [5] 0.092 | [6] -0.02 | [7] -0.005 | [8] -0.116 | [9] 0.034

TMEM65 (UniProt Q6PI78)
inactive: erlotinib -0.022 | [1] 0.014 | [2] 0.038 | [3] 0.023 | [4] -0.031 | [5] 0.127 | [6] -0.042 | [7] -0.067 | [8] -0.098 | [9] 0.045

TMUB2 (UniProt Q71RG4)
inactive: erlotinib 0.052 | [1] -0.041 | [2] 0.063 | [3] 0.017 | [4] 0.007 | [5] -0.016 | [6] -0.073 | [7] -0.065 | [8] 0.119 | [9] 0.052

TM7SF3 (UniProt Q9NS93)
inactive: erlotinib -0.073 | [1] 0.053 | [3] 0.03 | [4] -0.101 | [5] 0.034 | [6] 0.02 | [7] 0.061 | [8] 0.001 | [9] 0.123

TMEM14C (UniProt Q9P0S9)
inactive: erlotinib -0.04 | [1] -0.052 | [3] 0.07 | [4] 0.016 | [5] 0.013 | [6] 0.123 | [7] 0.052 | [8] -0.055 | [9] 0.024

TMX1 (UniProt Q9H3N1)
inactive: erlotinib 0.01 | [1] 0.001 | [2] -0.001 | [3] -0.006 | [4] 0 | [5] 0.009 | [6] -0.05 | [7] -0.009 | [8] -0.004 | [9] 0.024

TMC1 (UniProt Q8TDI8)
inactive: erlotinib 0.016 | [1] -0.107 | [2] 0.007 | [3] -0.14 | [4] 0.138 | [5] 0.115 | [7] -0.058 | [8] 0.067 | [9] 0.031

TMEM167A (UniProt Q8TBQ9)
inactive: erlotinib -0.054 | [1] -0.001 | [2] 0.037 | [3] -0.076 | [4] 0.051 | [5] -0.094 | [6] 0.051 | [7] 0.021 | [8] 0.002 | [9] 0.058

TMLHE isoform 8 (UniProt Q9NVH6)
inactive: erlotinib 0.033 | [1] -0.044 | [2] -0.064 | [3] 0.001 | [4] -0.032 | [5] 0.074 | [6] 0.035 | [7] -0.079 | [8] -0.009 | [9] 0.084

TMEM164 (UniProt Q5U3C3)
inactive: erlotinib -0.103 | [1] 0.178 | [2] 0.041 | [3] 0.002 | [4] 0.129 | [5] 0.078 | [7] 0.017 | [8] -0.042 | [9] 0.021

TMEM141 (UniProt Q96I45)
inactive: erlotinib 0.072 | [1] 0.027 | [3] -0.026 | [4] 0.022 | [5] 0.018 | [7] -0.018 | [8] 0.023 | [9] 0.033

TMEM123 (UniProt Q8N131)
inactive: erlotinib 0.004 | [1] 0.092 | [2] 0.033 | [3] 0.04 | [4] 0.104 | [5] 0.005 | [7] -0.12 | [8] 0.042 | [9] 0.042

Copied from the listing (8 entries):
TLN2 (UniProt Q9Y4G6)
inactive: erlotinib 0.084 | [1] 0.002 | [2] 0.099 | [3] -0.003 | [4] -0.071 | [5] 0.048 | [6] -0.032 | [7] 0.013 | [8] -0.016 | [9] -0.016

TMPO isoform 2 (UniProt P42167)
inactive: erlotinib -0.009 | [1] -0.065 | [2] 0.023 | [3] 0.017 | [4] 0.078 | [5] 0.04 | [6] -0.11 | [7] -0.111 | [8] 0.061 | [9] 0.043

TMA16 (UniProt Q96EY4)
inactive: erlotinib -0.06 | [1] -0.118 | [2] -0.43 | [3] 0.047 | [4] -0.039 | [5] -0.084 | [6] -0.024 | [7] 0.001 | [8] 0.043 | [9] -0.069

TMED4 (UniProt Q7Z7H5)
inactive: erlotinib 0.047 | [1] 0.078 | [2] 0.061 | [3] -0.025 | [4] 0.022 | [5] 0.054 | [6] -0.065 | [7] -0.076 | [8] -0.031 | [9] -0.002

TMEM214 (UniProt Q6NUQ4)
inactive: erlotinib -0.068 | [1] 0.016 | [2] -0.019 | [3] 0.001 | [4] 0.015 | [5] 0.017 | [6] -0.044 | [7] -0.025 | [8] 0.009 | [9] -0.088

TMOD3 (UniProt Q9NYL9)
inactive: erlotinib 0.02 | [1] 0.064 | [2] 0.024 | [3] -0.007 | [4] -0.047 | [5] 0.033 | [6] 0.009 | [7] 0.02 | [8] -0.02 | [9] -0.012

TMA7 (UniProt Q9Y2S6)
inactive: erlotinib 0.02 | [1] -0.006 | [2] -0.044 | [3] 0.033 | [4] 0.024 | [5] 0 | [6] -0.072 | [7] -0.035 | [8] 0.068 | [9] 0.024

TMEM177 (UniProt Q53S58)
inactive: erlotinib 0.058 | [1] 0.044 | [2] 0.03 | [3] -0.025 | [4] 0.062 | [5] -0.015 | [6] -0.034 | [7] 0.01 | [8] 0.028 | [9] 0.132

The results go on.

TMEM189 (UniProt A5PLL7)
inactive: erlotinib 0.052 | [1] -0.057 | [2] 0.054 | [3] -0.038 | [4] 0.041 | [5] 0.102 | [6] 0.132 | [7] -0.032 | [8] 0.201 | [9] -0.023

TMED5 (UniProt Q9Y3A6)
inactive: erlotinib -0.001 | [1] -0.034 | [2] -0.029 | [3] -0.001 | [4] 0.023 | [5] 0.047 | [6] -0.004 | [7] 0.022 | [8] 0.026 | [9] -0.023
